For at least one compound, name, drawing or mass did not settle the structure.
Assays:
SARS-CoV-2 S protein = SARS-CoV-2 S protein (Severe acute respiratory syndrome coronavirus 2, UniProt P0DTC2); assay type: cell-based; settings: read-out: IC50, inhibition of S-mediated fusion
MERS-CoV = MERS-CoV (Middle East respiratory syndrome-related coronavirus, UniProt K9N5Q8); assay type: cell-based; settings: read-out: IC50, inhibition of MERS-CoV infection

Amino acid sequences for entries named in this document (tags omitted). Residues count along the entry.
UniProt K9N5Q8, 752-1353 limits assumed: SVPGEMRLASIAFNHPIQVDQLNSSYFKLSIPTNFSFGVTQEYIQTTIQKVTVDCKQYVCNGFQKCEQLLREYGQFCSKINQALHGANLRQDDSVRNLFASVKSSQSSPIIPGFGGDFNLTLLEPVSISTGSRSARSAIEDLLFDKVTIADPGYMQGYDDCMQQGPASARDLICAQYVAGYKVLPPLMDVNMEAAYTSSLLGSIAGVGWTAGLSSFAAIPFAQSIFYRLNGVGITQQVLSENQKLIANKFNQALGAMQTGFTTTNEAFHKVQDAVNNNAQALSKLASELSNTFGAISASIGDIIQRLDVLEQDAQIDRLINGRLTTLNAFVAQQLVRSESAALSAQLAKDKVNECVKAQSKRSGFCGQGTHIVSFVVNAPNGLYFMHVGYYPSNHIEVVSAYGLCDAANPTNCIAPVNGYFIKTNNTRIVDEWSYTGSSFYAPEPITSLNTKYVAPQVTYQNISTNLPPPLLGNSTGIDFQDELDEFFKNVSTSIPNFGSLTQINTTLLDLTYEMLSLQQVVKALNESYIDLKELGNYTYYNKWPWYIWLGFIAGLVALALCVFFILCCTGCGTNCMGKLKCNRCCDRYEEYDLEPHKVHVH

CC[C@H](C)[C@H](NC(=O)[C@H](C)NC(=O)[C@H](CCC(=O)O)NC(=O)[C@H](CCC(=O)O)NC(=O)[C@H](CC(C)C)NC(=O)[C@H](CCCCN)NC(=O)[C@H](CCCCN)NC(=O)[C@H](CCSC)NC(=O)[C@H](CCC(=O)O)NC(=O)[C@H](Cc1ccc(O)cc1)NC(=O)[C@H](CCC(=O)O)NC(=O)[C@H](CC(C)C)NC(=O)[C@H](CC(=O)O)NC(=O)[C@H](CC(C)C)NC(=O)[C@H](Cc1ccccc1)NC(=O)[C@@H](NC(=O)[C@@H](NC(=O)[C@H](CC(N)=O)NC(=O)[C@@H](NC(=O)[C@H](CCC(N)=O)NC(=O)[C@H](CC(=O)O)NC(=O)[C@H](CC(C)C)NC(=O)[C@H](CO)NC(C)=O)[C@@H](C)CC)C(C)C)[C@@H](C)O)C(=O)N[C@@H](CCCCN)C(=O)N[C@@H](CCCCN)C(=O)N[C@@H](CC(C)C)C(=O)N[C@@H](CCC(=O)O)C(=O)N[C@@H](CCC(=O)O)C(=O)N[C@@H](CO)C(=O)N[C@@H](Cc1ccc(O)cc1)C(=O)N[C@H](C(=O)N[C@@H](CC(=O)O)C(=O)N[C@@H](CC(C)C)C(=O)N[C@@H](CCCCN)C(=O)N[C@@H](CCC(=O)O)C(=O)N[C@@H](CC(C)C)C(=O)NCC(=O)N[C@@H](CO)C(=O)NCC(=O)N[C@@H](CO)C(=O)NCC(=O)N[C@@H](CSCC(=O)NCCOCCOCCOCCOCCC(=O)O[C@H]1CC[C@@]2(C)C(=CC[C@H]3[C@@H]4CC[C@H]([C@H](C)CCCC(C)C)[C@@]4(C)CC[C@@H]32)C1)C(N)=O)[C@@H](C)CC [EK1 lipopeptide]
IC50 (SARS-CoV-2 S protein): ~300 nM | IC50 (MERS-CoV): ~8 nM

Source: patent publication US20250257099A1 (priority 2022, published 2025)
